PubChem BioAssay AID330 (DTP/NCI, 2004)
The list is a part of this screen's results and no random one: it is rich in T/C values a quarter to a half above the control, in often repeated tests (any T/C) and in doses without a T/C. Further doses and runs are listed elsewhere. T/C: endpoint of the treated group in % of that of the vehicle group. Some entries give survivors of the animals treated and no T/C: the source files T/C as zero there, which appears to mark a toxic dose or a test without result, not a measured value. Some survivor counts are full or nearly so, which does not show that the dose was tolerated: survival well below the control is almost never listed, so the zero probably covers shortened survival too. Counts of survivors are from the toxicity check (mostly the fifth day) where no day follows; animals may have died later. Schedule codes are those of the source, read here as Q, the interval in days (D) or hours (H), X, the number of doses. Where survival is the endpoint, this PubChem deposit counts one and a half times the control or more as active, and values a quarter to a half above the control carry no call in these data; other NCI protocols may use other cut-offs. Some T/C values are followed by the survivors on the day toxicity was checked, most often the fifth; where none is given, no animal had died by that day. Some entries hold several experiments; the results are listed from low to high. Signs of the kind (2×) say how often a value occurs here.

Tested on: P388 leukemia ip, CD2F1 mice, survival T/C
Test: NCI In Vivo Anticancer Drug Screen. Data for tumor model P388 Leukemia (intraperitoneal) in CD2F1 (CDF1) mice
Details: T/C endpoint: median survival time, higher T/C = longer survival
[1] = dose: 1.0 mg/kg/injection, schedule: Q01DX005 (ip), vehicle: saline + alcohol

COC(=O)[C@@]12OC[C@]34[C@H]([C@@H](O)[C@@H]1O)[C@@]1(C)CC(=O)C(O)=C(C)[C@@H]1C[C@H]3OC(=O)[C@H](OC(=O)/C=C(\C)C(C)C)[C@@H]24
T/C (dose: 0.03 mg/kg/injection, schedule: Q01DX009 (ip), vehicle: saline + alcohol): 127 and 130 % of control | T/C (dose: 0.03 mg/kg/injection, schedule: Q01DX009 (ip), vehicle: saline with Tween-80): 133 % of control | T/C (dose: 0.03 mg/kg/injection, schedule: Q03HX024 (ip), vehicle: saline + alcohol): 135 % of control | T/C (dose: 0.06 mg/kg/injection, schedule: Q01DX009 (ip), vehicle: saline + alcohol, evaluated on day 30): 115, 132, 140 % of control | T/C (dose: 0.06 mg/kg/injection, schedule: Q01DX009 (ip), vehicle: saline + alcohol, evaluated on day 60): 140 % of control | T/C (dose: 0.06 mg/kg/injection, schedule: Q01DX009 (ip), vehicle: saline with Tween-80): 139 % of control | T/C (dose: 0.06 mg/kg/injection, schedule: Q03HX016 (ip), vehicle: saline + alcohol): 135 % of control | T/C (dose: 0.12 mg/kg/injection, schedule: Q01DX009 (ip), vehicle: saline + alcohol): 130 and 145 % of control | T/C (dose: 0.13 mg/kg/injection, schedule: Q01DX009 (ip), vehicle: saline + alcohol, evaluated on day 30): 119, 134, 151 % of control | T/C (dose: 0.13 mg/kg/injection, schedule: Q01DX009 (ip), vehicle: saline + alcohol, evaluated on day 60): 149 % of control | T/C (dose: 0.13 mg/kg/injection, schedule: Q03HX008 (ip), vehicle: saline + alcohol): 135 % of control [9 of 10 alive] | T/C (dose: 0.13 mg/kg/injection, schedule: Q03HX016 (ip), vehicle: saline + alcohol): 141 % of control [9 of 10 alive] | T/C (dose: 0.25 mg/kg/injection, schedule: Q01DX005 (ip), vehicle: saline + alcohol): 114, 128, 140, 141, 141 [5 of 6 alive], 145, 146 % of control | T/C (dose: 0.25 mg/kg/injection, schedule: Q01DX009 (ip), vehicle: saline + alcohol, evaluated on day 30): 134, 138, 140, 146, 151, 152, 153, 156, 160, 161 (2×), 162 % of control | T/C (dose: 0.25 mg/kg/injection, schedule: Q01DX009 (ip), vehicle: saline + alcohol, evaluated on day 60): 156 % of control | survivor count (dose: 0.25 mg/kg/injection, schedule: Q03HX008 (ip), vehicle: saline + alcohol): 6 of 10 | survivor count (dose: 0.25 mg/kg/injection, schedule: Q03HX016 (ip), vehicle: saline + alcohol): 6 of 10 | T/C (dose: 0.25 mg/kg/injection, schedule: Q04DX003 (ip), vehicle: saline + alcohol): 127 % of control | T/C (dose: 0.5 mg/kg/injection, schedule: Q01DX005 (ip), vehicle: saline + alcohol): 126, 137, 140, 141, 146, 151, 153, 154, 155 (2×), 158 % of control | T/C (dose: 0.5 mg/kg/injection, schedule: Q01DX005 (ip), vehicle: water): 146 and 148 % of control [4 of 5 alive] | T/C (dose: 0.5 mg/kg/injection, schedule: Q01DX009 (ip), vehicle: saline + alcohol, evaluated on day 30): 134, 142, 154 (2×), 158, 159, 166 (2×), 173, 175, 176, 198 % of control | T/C (dose: 0.5 mg/kg/injection, schedule: Q01DX009 (ip), vehicle: saline + alcohol, evaluated on day 60): 160 % of control | survivor count (dose: 0.5 mg/kg/injection, schedule: Q03HX008 (ip), vehicle: saline + alcohol): 0 of 10 | survivor count (dose: 0.5 mg/kg/injection, schedule: Q03HX016 (ip), vehicle: saline + alcohol): 1 of 10 | survivor count (dose: 0.5 mg/kg/injection, schedule: Q03HX024 (ip), vehicle: saline + alcohol): 0 of 10 | T/C (dose: 0.5 mg/kg/injection, schedule: Q04DX003 (ip), vehicle: saline + alcohol): 127 % of control | T/C (dose: 0.75 mg/kg/injection, schedule: Q01DX009 (ip), vehicle: saline + Tween-80 + alcohol): 146 % of control | T/C [1]: 130, 141, 147, 148, 155, 157, 160, 163, 165, 170 % of control | survivor count [1]: 3 of 6 | T/C (dose: 1.0 mg/kg/injection, schedule: Q01DX005 (ip), vehicle: water): 147 % of control [4 of 6 alive] | T/C (dose: 1.0 mg/kg/injection, schedule: Q01DX009 (ip), vehicle: saline + alcohol, evaluated on day 30): 116, 139, 142, 144, 145, 146, 151, 176, 180, 187, 193 % of control | T/C (dose: 1.0 mg/kg/injection, schedule: Q01DX009 (ip), vehicle: saline + alcohol, evaluated on day 60): 164 % of control | survivor count (dose: 1.0 mg/kg/injection, schedule: Q01DX009 (ip), vehicle: saline + alcohol): 5 of 6 | T/C (dose: 1.0 mg/kg/injection, schedule: Q01DX009 (sc), vehicle: saline + alcohol): 126 % of control | survivor count (dose: 1.0 mg/kg/injection, schedule: Q03HX008 (ip), vehicle: saline + alcohol): 0 of 10 | survivor count (dose: 1.0 mg/kg/injection, schedule: Q03HX016 (ip), vehicle: saline + alcohol): 0 of 10 | T/C (dose: 1.0 mg/kg/injection, schedule: Q04DX003 (ip), vehicle: saline + alcohol): 134 % of control | survivor count (dose: 1.5 mg/kg/injection, schedule: Q01DX009 (ip), vehicle: saline + Tween-80 + alcohol): 4 of 6 | T/C (dose: 2.0 mg/kg/injection, schedule: Q01DX005 (ip), vehicle: saline + alcohol): 91, 150, 154, 154 [4 of 6 alive], 166 [5 of 6 alive], 167, 173 % of control
